According to the supplement of paper PMC10849652:
This is one part of the list.

Amino acid sequences for entries named in this document (tags omitted). A change or cut given only in a name is not applied to a line headed by its entry.
UniProt Q2M296: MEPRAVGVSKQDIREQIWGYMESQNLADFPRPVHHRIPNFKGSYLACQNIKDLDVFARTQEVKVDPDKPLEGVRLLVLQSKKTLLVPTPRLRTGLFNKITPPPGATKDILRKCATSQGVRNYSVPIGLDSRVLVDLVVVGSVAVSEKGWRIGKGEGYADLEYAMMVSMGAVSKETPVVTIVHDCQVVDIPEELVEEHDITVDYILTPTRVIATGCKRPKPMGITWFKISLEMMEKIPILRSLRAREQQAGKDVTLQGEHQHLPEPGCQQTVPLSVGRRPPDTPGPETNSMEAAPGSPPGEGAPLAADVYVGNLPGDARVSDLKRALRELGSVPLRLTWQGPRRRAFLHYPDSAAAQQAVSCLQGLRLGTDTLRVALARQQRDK
UniProt P55157: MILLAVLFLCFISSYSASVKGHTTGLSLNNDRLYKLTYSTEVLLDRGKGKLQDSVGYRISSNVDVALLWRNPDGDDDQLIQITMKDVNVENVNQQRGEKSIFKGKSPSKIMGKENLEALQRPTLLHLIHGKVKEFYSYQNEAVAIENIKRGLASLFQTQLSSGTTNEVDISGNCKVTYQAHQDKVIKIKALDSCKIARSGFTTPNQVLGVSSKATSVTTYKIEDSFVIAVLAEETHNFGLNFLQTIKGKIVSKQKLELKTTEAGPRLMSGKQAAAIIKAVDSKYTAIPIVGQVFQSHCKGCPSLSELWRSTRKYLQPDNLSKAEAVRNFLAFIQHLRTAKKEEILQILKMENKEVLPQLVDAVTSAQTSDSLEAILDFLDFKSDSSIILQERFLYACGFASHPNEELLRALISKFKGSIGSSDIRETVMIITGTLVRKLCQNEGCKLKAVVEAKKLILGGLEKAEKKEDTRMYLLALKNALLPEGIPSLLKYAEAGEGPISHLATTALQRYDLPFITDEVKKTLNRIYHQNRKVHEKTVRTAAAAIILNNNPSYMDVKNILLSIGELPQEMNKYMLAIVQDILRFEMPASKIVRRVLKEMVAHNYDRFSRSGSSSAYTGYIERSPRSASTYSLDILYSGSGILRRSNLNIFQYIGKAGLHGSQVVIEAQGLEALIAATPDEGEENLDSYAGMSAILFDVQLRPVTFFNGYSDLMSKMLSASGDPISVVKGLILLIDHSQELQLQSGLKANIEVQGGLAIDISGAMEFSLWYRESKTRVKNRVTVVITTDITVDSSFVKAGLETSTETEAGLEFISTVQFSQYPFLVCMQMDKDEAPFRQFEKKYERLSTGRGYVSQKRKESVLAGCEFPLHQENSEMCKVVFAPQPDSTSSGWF
UniProt P42285: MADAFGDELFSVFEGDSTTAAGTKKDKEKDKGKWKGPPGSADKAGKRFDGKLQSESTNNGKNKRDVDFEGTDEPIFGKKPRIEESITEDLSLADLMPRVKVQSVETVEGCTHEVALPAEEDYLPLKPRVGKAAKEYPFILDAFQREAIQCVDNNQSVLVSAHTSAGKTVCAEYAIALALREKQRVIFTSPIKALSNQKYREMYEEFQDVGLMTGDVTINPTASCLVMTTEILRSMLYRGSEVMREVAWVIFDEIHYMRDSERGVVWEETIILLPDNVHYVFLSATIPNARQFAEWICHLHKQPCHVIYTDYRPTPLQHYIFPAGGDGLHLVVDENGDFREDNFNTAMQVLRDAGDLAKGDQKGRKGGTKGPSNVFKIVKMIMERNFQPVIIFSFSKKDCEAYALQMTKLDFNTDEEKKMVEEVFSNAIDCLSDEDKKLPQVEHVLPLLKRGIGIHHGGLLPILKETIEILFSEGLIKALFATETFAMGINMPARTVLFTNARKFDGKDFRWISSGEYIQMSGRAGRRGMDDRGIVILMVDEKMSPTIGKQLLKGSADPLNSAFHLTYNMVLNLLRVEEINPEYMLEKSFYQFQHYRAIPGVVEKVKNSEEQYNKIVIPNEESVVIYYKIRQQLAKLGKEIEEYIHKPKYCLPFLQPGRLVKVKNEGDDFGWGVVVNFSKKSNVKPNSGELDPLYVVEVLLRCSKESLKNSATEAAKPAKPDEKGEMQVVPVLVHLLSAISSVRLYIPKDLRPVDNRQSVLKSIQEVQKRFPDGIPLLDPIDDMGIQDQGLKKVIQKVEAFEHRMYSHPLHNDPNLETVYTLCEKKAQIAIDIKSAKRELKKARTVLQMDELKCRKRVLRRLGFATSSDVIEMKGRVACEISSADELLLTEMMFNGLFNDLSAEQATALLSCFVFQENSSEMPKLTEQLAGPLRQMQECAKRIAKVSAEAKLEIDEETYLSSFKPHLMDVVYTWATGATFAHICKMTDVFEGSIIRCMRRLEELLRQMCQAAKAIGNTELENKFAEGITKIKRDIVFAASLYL
UniProt Q96DH6: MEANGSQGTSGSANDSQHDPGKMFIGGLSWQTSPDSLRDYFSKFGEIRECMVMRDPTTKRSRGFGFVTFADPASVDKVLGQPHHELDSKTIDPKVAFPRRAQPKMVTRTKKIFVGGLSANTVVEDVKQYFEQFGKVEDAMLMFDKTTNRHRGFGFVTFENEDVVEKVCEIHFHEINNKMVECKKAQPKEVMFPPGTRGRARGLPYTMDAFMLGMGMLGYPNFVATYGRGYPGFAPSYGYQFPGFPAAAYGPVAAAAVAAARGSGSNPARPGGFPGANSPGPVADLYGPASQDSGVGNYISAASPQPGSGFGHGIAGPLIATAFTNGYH
UniProt Q9NZJ7, whole entry, looked up: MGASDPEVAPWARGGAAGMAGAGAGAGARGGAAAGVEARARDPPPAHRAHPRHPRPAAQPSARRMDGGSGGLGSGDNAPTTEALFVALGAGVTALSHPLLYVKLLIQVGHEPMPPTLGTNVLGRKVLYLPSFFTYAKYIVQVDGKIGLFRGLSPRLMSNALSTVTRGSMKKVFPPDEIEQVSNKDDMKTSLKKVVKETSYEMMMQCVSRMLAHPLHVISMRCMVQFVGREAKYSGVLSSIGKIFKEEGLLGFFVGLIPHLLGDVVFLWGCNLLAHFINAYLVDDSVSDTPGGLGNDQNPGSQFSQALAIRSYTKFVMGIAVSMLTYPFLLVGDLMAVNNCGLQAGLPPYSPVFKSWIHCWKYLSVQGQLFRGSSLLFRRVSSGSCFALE
UniProt O75431: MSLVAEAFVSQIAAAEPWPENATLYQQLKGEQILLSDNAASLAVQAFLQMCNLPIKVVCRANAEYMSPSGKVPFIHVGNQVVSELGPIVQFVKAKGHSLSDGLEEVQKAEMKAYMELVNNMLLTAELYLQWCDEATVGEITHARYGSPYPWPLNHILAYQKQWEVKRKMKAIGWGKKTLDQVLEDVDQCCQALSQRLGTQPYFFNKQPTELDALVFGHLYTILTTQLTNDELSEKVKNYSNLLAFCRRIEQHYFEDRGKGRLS
UniProt Q9Y4B5: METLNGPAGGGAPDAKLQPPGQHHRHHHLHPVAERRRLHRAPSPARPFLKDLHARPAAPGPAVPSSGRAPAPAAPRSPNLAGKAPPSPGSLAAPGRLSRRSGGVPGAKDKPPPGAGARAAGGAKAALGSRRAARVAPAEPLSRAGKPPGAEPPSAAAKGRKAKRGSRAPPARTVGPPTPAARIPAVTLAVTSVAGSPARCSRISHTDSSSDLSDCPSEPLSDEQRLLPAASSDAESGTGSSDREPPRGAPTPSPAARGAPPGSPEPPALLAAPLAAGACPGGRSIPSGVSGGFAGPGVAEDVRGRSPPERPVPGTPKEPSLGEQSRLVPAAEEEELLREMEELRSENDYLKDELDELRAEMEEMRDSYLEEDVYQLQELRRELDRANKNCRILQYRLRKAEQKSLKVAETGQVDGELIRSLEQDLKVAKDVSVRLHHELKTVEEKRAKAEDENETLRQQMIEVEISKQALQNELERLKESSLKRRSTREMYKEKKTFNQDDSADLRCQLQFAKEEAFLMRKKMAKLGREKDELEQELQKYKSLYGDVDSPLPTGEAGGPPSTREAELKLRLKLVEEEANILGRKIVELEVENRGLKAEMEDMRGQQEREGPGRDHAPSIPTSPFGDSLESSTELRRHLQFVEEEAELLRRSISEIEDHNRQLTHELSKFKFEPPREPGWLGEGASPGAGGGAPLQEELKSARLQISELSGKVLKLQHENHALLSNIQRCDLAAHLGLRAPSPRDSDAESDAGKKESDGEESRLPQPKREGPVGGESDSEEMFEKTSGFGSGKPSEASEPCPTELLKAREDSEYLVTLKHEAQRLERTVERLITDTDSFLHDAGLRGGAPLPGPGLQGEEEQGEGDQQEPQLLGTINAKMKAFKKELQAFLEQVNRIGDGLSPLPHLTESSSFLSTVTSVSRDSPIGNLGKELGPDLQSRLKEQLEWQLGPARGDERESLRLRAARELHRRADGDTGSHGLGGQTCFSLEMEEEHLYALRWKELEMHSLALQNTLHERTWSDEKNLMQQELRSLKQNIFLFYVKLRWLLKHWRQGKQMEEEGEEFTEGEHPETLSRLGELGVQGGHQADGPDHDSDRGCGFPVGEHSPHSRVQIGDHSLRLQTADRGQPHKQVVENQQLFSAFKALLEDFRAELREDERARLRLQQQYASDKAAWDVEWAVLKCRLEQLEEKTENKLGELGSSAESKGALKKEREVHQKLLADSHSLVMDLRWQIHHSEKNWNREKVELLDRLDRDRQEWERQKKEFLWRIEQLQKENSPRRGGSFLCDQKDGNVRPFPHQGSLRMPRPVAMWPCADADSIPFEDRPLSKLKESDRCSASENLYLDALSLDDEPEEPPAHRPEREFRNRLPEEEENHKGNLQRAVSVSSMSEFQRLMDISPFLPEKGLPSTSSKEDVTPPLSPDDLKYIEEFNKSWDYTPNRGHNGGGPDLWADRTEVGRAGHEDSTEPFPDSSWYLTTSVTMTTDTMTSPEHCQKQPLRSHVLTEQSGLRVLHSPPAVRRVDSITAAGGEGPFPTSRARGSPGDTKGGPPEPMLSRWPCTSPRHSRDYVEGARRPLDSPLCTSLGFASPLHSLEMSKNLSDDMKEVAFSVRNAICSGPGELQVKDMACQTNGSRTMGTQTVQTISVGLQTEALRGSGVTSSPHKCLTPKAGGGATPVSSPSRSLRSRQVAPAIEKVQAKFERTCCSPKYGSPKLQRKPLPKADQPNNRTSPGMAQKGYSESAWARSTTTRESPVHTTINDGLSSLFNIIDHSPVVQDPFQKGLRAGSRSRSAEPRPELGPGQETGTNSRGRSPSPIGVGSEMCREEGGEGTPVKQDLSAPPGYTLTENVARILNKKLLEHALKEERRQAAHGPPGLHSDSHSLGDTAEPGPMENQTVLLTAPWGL
UniProt Q13505: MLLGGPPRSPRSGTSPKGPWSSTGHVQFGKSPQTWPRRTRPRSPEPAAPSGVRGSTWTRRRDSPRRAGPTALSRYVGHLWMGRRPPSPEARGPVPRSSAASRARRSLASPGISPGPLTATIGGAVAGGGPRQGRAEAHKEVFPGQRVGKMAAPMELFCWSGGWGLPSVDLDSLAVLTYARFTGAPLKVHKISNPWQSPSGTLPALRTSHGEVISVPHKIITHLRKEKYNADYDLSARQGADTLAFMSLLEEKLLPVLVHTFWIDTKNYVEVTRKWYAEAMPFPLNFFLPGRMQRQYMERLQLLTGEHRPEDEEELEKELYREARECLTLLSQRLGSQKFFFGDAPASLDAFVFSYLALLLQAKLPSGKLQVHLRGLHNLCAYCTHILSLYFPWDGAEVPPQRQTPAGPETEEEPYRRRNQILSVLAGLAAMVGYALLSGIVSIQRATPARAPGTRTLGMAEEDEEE
UniProt O94776: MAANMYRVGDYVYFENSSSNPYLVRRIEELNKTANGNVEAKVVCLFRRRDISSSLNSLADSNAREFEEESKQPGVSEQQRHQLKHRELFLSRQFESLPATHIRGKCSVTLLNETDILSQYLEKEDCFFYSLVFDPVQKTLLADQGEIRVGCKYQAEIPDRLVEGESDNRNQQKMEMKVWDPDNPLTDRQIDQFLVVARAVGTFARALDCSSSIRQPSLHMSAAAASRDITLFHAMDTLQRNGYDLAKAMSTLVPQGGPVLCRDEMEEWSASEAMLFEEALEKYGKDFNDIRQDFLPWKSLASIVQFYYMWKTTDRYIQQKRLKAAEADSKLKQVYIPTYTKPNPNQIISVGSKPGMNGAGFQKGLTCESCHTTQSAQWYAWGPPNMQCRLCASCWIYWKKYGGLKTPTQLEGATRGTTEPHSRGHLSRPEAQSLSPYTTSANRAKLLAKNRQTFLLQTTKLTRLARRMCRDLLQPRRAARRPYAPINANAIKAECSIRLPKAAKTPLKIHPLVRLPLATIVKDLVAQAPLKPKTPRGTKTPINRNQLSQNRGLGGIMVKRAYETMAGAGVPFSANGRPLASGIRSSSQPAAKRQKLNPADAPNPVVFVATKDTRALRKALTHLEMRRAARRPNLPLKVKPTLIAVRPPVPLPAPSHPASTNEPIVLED

Tests used:
Assay in all cases: log2 fold change, soluble protein after heating vs DMSO (PISA); higher = thermal stabilisation; K562 lysate, 10 uM; active = over 0.2 and 3.5 SD of the protein, either way, in both replicates (recomputed)
[1] = compound: C1=CC=C(C=C1)[C@H](COC2=CC3=C(C=C2)NC(=O)N3)NC(=O)C4=CC=CN(C4=O)CC5=CC(=C(C=C5)F)F
Outline: (§1)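 Log-two fold change in thermal stability relative to solvent controls is reported from duplicates. For each sample, crude K562 extract from dounce-homogenised pellets in PBS pH 7.4 with 1 mM MgCl2, at 1 mg/mL protein, was treated with 10 μM compound for 30 min. Aliquots heated for 3 min across 48°C-58°C were pooled, brought to 0.5% NP-40 at 4°C and cleared at 21,000xg for 90 min. The supernatant was quantified by TMTpro 16plex LC-MS/MS with channel sums equalised.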

[2] = compound: CC1=C(SC2=C1C(=N[C@H](C3=NN=C(N32)C)CC(=O)N)C4=CC=C(C=C4)Cl)C
Outline: as §1

[3] = compound: CC1=C2C(=CC=C1)N=C(N(C2=O)C3=CC=CC=C3C)CN4C=NC5=C(N=CN=C54)N
Outline: as §1

[4] = compound: Cc1sc2c(c1C)C(c1ccc(Cl)cc1)=N[C@@H](CC(=O)OC(C)(C)C)c1nnc(C)n1-2
Outline: as §1

[5] = compound: c1ccc([C@@H]2C[C@H]2NC2CCNCC2)cc1
Outline: as §1

Measured: log2 fold change

MRPL51 (UniProt Q4U2R6)
inactive: [1] -0.001 | [2] -0.053 | [3] 0.043 | [4] 0.066 | [5] -0.109

MRPL28 (UniProt Q13084)
inactive: [1] -0.002 | [2] -0.062 | [3] -0.026 | [4] 0.066 | [5] 0.356

MRPS33 (UniProt Q9Y291)
inactive: [1] 0.042 | [2] -0.045 | [3] -0.043 | [4] 0.078 | [5] 0.038

MTHFSD isoform 3 (UniProt Q2M296)
inactive: [1] -0.005 | [2] 0.045 | [3] -0.045 | [4] -0.018 | [5] -0.125

MTTP (UniProt P55157)
inactive: [1] -0.074 | [2] 0.18

MTREX (UniProt P42285)
inactive: [1] -0.008 | [2] -0.002 | [3] 0.007 | [4] -0.011 | [5] -0.005

MRPL35 (UniProt Q9NZE8)
inactive: [1] -0.028 | [2] -0.002 | [3] 0.331 | [4] -0.04 | [5] 0

MTHFR (UniProt F8W9T8)
inactive: [1] -0.046 | [2] 0.055

MRS2 (UniProt Q9HD23)
inactive: [1] 0.05 | [2] -0.012 | [3] -0.003 | [4] 0.005 | [5] 0.01

MSI2 (UniProt Q96DH6)
inactive: [1] -0.007 | [2] -0.007 | [3] -0.001 | [4] 0.048 | [5] 0.071

Copied from the entries so far (2 entries):
MRPL35 (UniProt Q9NZE8)
inactive: [1] -0.028 | [2] -0.002 | [3] 0.331 | [4] -0.04 | [5] 0

MTHFR (UniProt F8W9T8)
inactive: [1] -0.046 | [2] 0.055

Additional records:

MRPL33 (UniProt O75394)
inactive: [1] -0.085 | [2] -0.029 | [3] -0.061 | [4] 0.085 | [5] -0.001

MTRR isoform 1 (UniProt Q9UBK8)
inactive: [1] -0.088 | [2] 0.016 | [3] -0.006 | [4] -0.031 | [5] 0.024

MRPS16 (UniProt Q9Y3D3)
inactive: [1] -0.017 | [2] 0.027 | [3] 0.014 | [4] 0.04 | [5] 0.041

MRPS27 isoform 2 (UniProt Q92552)
inactive: [1] -0.02 | [2] 0.035 | [3] 0.052 | [4] 0.036 | [5] -0.014

MRPS12 (UniProt O15235)
inactive: [1] 0 | [2] 0.019 | [3] 0.053 | [4] 0.039 | [5] 0.026

MRPL43 isoform 4 (UniProt Q8N983)
inactive: [1] -0.009 | [2] -0.022 | [3] 0.06 | [4] 0.023 | [5] -0.065

MTCH1 (UniProt Q9NZJ7)
inactive: [1] 0.085 | [2] 0.042 | [3] -0.051 | [4] -0.037 | [5] -0.068

MT-CO1 (UniProt P00395)
inactive: [1] -0.004 | [2] -0.096 | [3] -0.06 | [4] -0.061 | [5] -0.002

MTX2 (UniProt O75431)
inactive: [1] 0.019 | [2] 0.022 | [3] 0.022 | [4] 0.057 | [5] 0.021

MRPL58 (UniProt Q14197)
inactive: [1] 0.011 | [2] 0.029 | [3] 0.075 | [4] -0.002 | [5] 0.081

MRPL32 (UniProt Q9BYC8)
inactive: [1] 0.031 | [2] 0.008 | [3] -0.044 | [4] -0.063 | [5] -0.054

MTCL1 (UniProt Q9Y4B5)
inactive: [1] 0.045 | [2] 0.02 | [3] 0.121 | [4] -0.066

MRPS30 (UniProt Q9NP92)
inactive: [1] -0.106 | [2] 0.029 | [3] 0.102 | [4] 0.006 | [5] -0.115

MTX1 (UniProt Q13505)
inactive: [1] 0.026 | [2] -0.036 | [3] -0.009 | [4] 0.011 | [5] -0.037

MTA2 (UniProt O94776)
inactive: [1] 0 | [2] 0.015 | [3] -0.004 | [4] 0.015 | [5] 0.031
